Results published in publication PMC3398308.
No constants are given. Whether binding was seen depends on the method and setting. Binding seen in cells or lysates may run through a third protein. A result given as binding can be weak or reduced; the word gives no strength.

The chains behind the UniProt entries cited, without tags or fusion partners. Where a name states a change or a piece, a line headed by the entry shows the natural chain unless it says otherwise.
UniProt Q60662: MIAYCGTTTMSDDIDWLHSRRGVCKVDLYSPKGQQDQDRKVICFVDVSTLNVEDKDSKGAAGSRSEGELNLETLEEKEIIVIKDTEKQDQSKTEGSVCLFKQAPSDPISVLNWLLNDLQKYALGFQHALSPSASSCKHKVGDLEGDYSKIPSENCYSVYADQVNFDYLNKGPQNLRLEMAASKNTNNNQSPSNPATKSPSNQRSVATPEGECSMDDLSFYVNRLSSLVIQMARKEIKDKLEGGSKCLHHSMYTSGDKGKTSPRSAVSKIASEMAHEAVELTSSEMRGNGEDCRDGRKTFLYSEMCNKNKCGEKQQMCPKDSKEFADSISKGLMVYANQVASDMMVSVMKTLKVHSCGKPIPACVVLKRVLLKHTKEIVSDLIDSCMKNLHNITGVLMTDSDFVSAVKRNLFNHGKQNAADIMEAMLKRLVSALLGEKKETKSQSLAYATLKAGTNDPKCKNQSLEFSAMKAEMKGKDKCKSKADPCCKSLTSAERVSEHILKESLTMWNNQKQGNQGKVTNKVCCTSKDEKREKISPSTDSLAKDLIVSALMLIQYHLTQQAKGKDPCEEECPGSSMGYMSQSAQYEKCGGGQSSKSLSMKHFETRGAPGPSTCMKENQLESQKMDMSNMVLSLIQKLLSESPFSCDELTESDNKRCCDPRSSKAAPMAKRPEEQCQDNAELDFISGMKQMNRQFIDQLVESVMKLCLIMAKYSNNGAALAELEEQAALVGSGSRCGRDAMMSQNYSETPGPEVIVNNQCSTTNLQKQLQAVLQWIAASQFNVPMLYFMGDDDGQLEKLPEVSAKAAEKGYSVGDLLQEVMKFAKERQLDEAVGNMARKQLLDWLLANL

Biological target: AKAP4 (mouse (endogenous in mouse sperm)) (UniProt Q60662)
Assay: co-IP; method 2: mouse sperm extracted in Celis buffer without DTT, dialysed against PBS, precipitated with anti-AKAP3 polyclonal or anti-AKAP4 monoclonal antibody; 2-D Western blot with anti-CABYR-A or anti-CABYR-B; pre-immune serum or normal mouse IgG as control

binding: binds
B1: 80 kDa CABYR-A only variant (protein, UniProt Q9D424 1-453)
chain: MISSKPRLVVPYGLKTLLEGVSRAILKTNPTNITQFAAVYFKELIVFREGNSSLDIKDLIKQFHQMKVEKWAEGVTVEKKECIKEPIKPPPVPCKPTHMEKSTDTEEDNVAGPLFSNKTTQFPSVHAEVQSEETSEGARGPSDKPTTPKTDYTPPSSPPPAPVSAEYAYVPADPAQFAAQMLGNVPSTYSEVLMVDVATSTPAVPQDVLSAEFAEEVVLSAPLVCSGETVEVQVVSKTSAQVVVGPVSEAEPPKASSAPLQGEQEPPAHEAPDTQVTSASRISSIYNDVPVNEGVVYVEEIPGYIVIPFTDHDQVACVKEIEQSPPGSPKAVEPKTKISIESLKTVQVEENSQHKSSVHVEAEATVLLSNTALDGQPEVPAEPLDAEGFFKVASENSLHLETEIVIINPDDPGQEESGGNAAPHSSGDPFPPAPGGLTEPEMQPDGEAAPEQV
